Reference: PubChem BioAssay (EPA / NIEHS)
This list was built around the results that the source calls inconclusive (neither active nor inactive); the mix of calls is not that of the screen. For some assays here: Potencies of inconclusive entries are doubtful fits and often do not repeat. Calls of active or inactive are those of the source. The calls were made as follows: active = hit-call score of the fitted dose curve at least 0.9, where 1 is the maximum; inconclusive = response in the unintended direction; inactive = score below 0.9.

Chains of the proteins cited; added tags and fusions are not shown. Lines headed by an entry give the natural chain unless they say otherwise; changes in a name come on top.
UniProt Q9UBN7: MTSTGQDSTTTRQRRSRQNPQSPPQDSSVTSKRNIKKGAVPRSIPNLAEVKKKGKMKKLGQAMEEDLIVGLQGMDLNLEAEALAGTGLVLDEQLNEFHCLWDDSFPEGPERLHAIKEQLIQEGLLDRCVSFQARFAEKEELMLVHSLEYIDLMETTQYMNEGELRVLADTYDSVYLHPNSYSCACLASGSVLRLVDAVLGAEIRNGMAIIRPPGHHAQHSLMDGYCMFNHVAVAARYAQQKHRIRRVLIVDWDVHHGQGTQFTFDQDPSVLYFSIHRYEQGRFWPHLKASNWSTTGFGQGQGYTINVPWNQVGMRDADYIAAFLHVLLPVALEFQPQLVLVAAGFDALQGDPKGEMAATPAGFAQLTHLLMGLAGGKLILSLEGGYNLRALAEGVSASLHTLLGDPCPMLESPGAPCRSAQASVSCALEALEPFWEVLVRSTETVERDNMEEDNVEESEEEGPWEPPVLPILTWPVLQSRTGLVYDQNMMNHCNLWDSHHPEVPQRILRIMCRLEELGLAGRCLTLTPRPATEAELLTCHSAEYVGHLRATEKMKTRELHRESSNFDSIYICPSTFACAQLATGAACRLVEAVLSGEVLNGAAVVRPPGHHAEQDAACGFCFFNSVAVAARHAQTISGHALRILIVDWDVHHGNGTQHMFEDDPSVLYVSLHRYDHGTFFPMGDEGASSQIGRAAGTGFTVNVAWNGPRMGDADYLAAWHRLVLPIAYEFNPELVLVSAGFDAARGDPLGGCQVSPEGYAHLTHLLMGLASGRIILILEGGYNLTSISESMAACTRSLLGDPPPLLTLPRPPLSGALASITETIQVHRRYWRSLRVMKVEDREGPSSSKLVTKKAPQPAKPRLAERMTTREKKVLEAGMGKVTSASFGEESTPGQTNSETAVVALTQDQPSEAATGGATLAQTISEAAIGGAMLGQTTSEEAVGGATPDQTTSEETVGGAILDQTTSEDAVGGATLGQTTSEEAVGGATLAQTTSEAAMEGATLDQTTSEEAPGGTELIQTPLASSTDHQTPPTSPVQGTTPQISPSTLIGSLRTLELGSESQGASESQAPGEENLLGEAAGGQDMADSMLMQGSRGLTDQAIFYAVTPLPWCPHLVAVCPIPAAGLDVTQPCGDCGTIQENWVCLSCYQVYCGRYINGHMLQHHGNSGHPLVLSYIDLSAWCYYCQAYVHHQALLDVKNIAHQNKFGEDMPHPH
UniProt P06276, whole entry, looked up: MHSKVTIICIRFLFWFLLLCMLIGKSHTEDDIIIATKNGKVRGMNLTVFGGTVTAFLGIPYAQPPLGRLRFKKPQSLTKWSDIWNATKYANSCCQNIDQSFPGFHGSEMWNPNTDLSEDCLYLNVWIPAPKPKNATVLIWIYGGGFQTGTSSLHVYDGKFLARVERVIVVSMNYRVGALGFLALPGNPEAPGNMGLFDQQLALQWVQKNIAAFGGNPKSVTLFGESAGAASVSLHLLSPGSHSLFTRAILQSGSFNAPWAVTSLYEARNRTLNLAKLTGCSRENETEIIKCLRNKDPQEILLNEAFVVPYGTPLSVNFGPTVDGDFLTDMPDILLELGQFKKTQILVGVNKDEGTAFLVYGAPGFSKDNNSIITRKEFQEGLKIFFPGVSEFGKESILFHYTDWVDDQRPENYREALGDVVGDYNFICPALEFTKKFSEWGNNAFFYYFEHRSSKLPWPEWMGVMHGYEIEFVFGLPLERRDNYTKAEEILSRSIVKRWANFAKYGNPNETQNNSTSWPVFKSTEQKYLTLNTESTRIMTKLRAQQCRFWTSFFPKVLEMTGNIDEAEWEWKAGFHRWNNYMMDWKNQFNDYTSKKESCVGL
UniProt P08253: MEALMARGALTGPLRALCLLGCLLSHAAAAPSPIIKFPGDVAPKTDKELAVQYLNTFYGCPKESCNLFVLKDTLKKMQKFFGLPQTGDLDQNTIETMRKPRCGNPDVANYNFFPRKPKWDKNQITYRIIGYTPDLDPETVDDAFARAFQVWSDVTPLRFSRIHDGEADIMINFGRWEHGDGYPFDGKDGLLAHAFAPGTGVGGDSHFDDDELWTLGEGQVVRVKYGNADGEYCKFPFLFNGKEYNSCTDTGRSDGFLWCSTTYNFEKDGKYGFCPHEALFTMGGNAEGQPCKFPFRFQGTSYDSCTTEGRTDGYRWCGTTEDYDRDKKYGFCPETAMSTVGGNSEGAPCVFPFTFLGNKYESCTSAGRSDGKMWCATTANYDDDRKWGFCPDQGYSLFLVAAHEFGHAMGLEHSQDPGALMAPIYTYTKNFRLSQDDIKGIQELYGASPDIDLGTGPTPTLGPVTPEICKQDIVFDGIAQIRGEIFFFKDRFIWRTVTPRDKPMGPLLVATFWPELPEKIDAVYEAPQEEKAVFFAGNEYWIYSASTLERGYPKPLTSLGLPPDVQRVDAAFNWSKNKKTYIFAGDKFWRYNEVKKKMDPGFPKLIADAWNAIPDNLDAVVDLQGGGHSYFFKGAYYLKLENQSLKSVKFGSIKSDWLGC
UniProt P37136: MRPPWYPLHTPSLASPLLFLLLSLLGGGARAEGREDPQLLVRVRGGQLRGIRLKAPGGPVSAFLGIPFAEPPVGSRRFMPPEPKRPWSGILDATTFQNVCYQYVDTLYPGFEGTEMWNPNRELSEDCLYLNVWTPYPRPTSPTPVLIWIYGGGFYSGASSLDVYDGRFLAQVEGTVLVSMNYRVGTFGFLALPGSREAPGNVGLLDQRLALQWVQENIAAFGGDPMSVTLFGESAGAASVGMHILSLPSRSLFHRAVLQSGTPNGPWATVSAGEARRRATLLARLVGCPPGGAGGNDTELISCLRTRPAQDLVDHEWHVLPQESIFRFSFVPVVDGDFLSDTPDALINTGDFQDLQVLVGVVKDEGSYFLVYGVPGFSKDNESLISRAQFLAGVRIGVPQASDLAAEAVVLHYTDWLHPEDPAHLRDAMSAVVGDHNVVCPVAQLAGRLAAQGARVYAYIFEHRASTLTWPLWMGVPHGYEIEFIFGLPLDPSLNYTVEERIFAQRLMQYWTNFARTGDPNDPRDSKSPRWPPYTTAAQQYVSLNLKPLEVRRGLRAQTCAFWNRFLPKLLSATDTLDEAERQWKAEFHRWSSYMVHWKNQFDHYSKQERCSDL
UniProt P19793: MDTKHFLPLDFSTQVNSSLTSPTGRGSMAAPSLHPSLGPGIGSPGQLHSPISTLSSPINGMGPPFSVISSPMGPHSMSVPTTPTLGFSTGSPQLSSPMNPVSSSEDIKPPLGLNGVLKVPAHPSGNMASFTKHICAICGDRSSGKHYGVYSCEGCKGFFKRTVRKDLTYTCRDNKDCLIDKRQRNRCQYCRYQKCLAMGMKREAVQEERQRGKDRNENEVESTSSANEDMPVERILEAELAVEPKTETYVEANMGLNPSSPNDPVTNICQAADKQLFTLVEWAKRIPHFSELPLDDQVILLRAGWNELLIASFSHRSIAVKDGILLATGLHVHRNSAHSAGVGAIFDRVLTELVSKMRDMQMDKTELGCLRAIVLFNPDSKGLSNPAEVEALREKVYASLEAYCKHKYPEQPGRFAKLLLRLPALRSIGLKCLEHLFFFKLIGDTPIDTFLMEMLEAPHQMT
UniProt P09237: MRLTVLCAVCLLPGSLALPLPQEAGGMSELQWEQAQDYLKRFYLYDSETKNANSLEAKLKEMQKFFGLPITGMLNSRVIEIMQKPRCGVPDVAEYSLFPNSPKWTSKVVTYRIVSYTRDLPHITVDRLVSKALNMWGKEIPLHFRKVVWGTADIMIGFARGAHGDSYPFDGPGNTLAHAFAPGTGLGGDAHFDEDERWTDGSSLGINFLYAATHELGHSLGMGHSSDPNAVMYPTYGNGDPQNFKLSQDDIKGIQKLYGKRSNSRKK
UniProt P08684, whole entry, looked up: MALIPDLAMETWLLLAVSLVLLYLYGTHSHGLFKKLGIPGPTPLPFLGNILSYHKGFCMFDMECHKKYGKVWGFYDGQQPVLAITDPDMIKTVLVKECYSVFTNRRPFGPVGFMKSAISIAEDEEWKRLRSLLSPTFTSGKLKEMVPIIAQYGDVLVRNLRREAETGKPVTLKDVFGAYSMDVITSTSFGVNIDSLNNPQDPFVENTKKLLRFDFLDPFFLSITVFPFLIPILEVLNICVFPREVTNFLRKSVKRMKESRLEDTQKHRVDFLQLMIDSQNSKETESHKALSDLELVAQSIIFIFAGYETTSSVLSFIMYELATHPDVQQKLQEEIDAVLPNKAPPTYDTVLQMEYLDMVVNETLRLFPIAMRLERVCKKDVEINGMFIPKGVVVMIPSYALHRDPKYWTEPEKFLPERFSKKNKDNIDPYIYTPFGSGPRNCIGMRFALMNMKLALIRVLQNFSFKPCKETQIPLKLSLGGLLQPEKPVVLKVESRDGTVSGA

Tests used:
[1] = target: Protein deacetylase HDAC6 (Homo sapiens) (UniProt Q9UBN7); experiment: NVS_ENZ_hHDAC6: NovaScreen (NVS) Enzymatic Assay for human Histone Deacetylase 6 (HDAC6) (AID 2283164)
Method in brief: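 Concentration-response runs up to 50 uM followed a duplicate 25 uM single-point screen. Deacetylase activity of recombinant human HDAC6 read by fluorescence after 1 h, with mobility-shift separation of substrate and product; DMSO as baseline.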

[2] = ArunA_NOG_NucleusCount: ArunA Biomedical's Neurite Outgrowth (NOG) Assay for Nucleus Count (AID 2283756)
Method in brief: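 Viable neuron count, from Hoechst nuclei passing size and intensity gates, imaged at 20x on differentiated H9-derived human neurons. Exposure lasted 48 h from seeding; activity was scored relative to DMSO.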

[3] = TAMU_PeakParms_SingleDonor1434_QT: Texas A&M University (TAMU) 1.5-hr Human Induced Pluripotent Stem Cell (iPSC)-derived Cardiomyocytes Calcium (Ca+2) Flux Assay for Cardiotoxicity: QT (decay-rise ratio) (AID 2284235)
Method in brief: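 Decay/rise ratio of calcium-flux fluorescence scored after 90 min exposure (37C) of donor 1434 iPSC cardiomyocytes to 0.2–100 uM (0.5% DMSO). Beat-cessation and severe-notch points removed; POD is EC05, a 5% rise over DMSO.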

[4] = VALA_TUBIPS_Agonist_TubuleLength: VALA Sciences human iPS-derived Endothelial Tubule Formation (TUBIPS) Agonism Assay (AID 2284311)
Method in brief: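 Agonist-mode readout is the gain in imaged tubule length versus DMSO baseline. It was measured by fluorescence high-content imaging 72 h after dosing human iPSC-derived endothelial cells.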

[5] = VALA_MIGHUV2_WoundArea: VALA Sciences human Umbilical Vein Endothelial Cell Migration (MIGHUV) Assay, Area of Scratch Wound after Recovery (AID 2284316)
Method in brief: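 Wound-area endpoint read by fluorescence imaging of Hoechst-stained nuclei after a 24 h recovery period following scratch of HUVEC monolayers (9000 cells/well). Chemicals dosed within 30 min post-scratch, triplicate 6-point series, 0.1% DMSO vehicle; Cytochalasin D positive control.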

[6] = TAMU_PeakParms_SingleDonor1434_Asystole: Texas A&M University (TAMU) 1.5-hr Human Induced Pluripotent Stem Cell (iPSC)-derived Cardiomyocytes Calcium (Ca+2) Flux Assay for Cardiotoxicity: Asystole (quiescence of beating) (AID 2284328)
Method in brief: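 Average Ca2+-flux peak frequency (beats/s) was recorded in single-donor iPSC-derived cardiomyocytes after 90 min exposure (0.2–100 uM final, 0.5% DMSO). Asystole POD set as EC95 against DMSO, no preprocessing.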

[7] = VALA_TUBIPS_Agonist_CellCount: Viability Assessment in the VALA Sciences human iPS-derived Endothelial Tubule Formation (TUBIPS) Agonism Assay (AID 2284338)
[8] = target: human Esterase Plasma (ES), BCHE (gene 590) (UniProt P06276); experiment: NVS_ENZ_hES: NovaScreen (NVS) Enzymatic Assay for human Esterase Plasma (ES) (AID 2283157)
Method in brief: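 Primary single-concentration screen at 25 uM in duplicate, then concentration-response to a 50 uM top dose. Human plasma esterase activity detected colorimetrically after 0.25 h incubation, with DMSO as baseline.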

[9] = CCTE_Mundy_HCI_iCellGluta_NOG_NeuronCount: CCTE's Neurite Outgrowth Assay in iCellGluta cells for Neuron Count, Mundy Lab (AID 2284340);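 also: cells fixed about 48 h after compound addition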
Method in brief: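 Neuron count read by automated high-content imaging of Hoechst 33342 and betaIII-tubulin/Alexa Fluor-488 labelling in human iPSC glutamatergic neurons. Activity fitted relative to DMSO.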

[10] = target: human Matrix Metalloproteinase-2 (MMP2), MMP2 (gene 4313) (UniProt P08253); experiment: NVS_ENZ_hMMP2: NovaScreen (NVS) Enzymatic Assay for human Matrix Metalloproteinase-2 (MMP2) (AID 2283184)
Method in brief: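 Compounds first screened in duplicate at a single 25 uM, with actives followed up in concentration series. Recombinant human MMP2 cleaves a fluorogenic substrate; fluorescence taken at 1 h, inhibition fitted relative to DMSO.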

[11] = target: rat Acetylcholinesterase (AChE), Ache (gene 83817) (UniProt P37136); experiment: NVS_ENZ_rAChE: NovaScreen (NVS) Enzymatic Assay for rat Acetylcholinesterase (AChE) (AID 2283233)
Method in brief: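 Compounds first screened at 25 uM in duplicate, then those passing threshold tested in concentration series up to 50 uM, against AChE from rat brain membranes. Enzyme activity read by absorbance at 0.33 h; inhibition scored versus DMSO.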

[12] = target: Retinoic acid receptor RXR-alpha (Homo sapiens) (UniProt P19793); experiment: TOX21_TR_RXR_BLA_Agonist_Followup_ratio: Tox21 Thyroid Hormone Receptor beta Retinoid X Receptor alpha (RXRa) Agonism Beta-lactamase (BLA) Follow-Up Assay, Ratio (AID 2283968)
Method in brief: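 Agonism is scored as an increase in the 460:530 nm beta-lactamase substrate ratio over DMSO in RXRa-UAS-bla HEK293T cells exposed for 16 h to 11 compound concentrations.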

[13] = target: human Matrix Metalloproteinase-7 (MMP7), MMP7 (gene 4316) (UniProt P09237); experiment: NVS_ENZ_hMMP7: NovaScreen (NVS) Enzymatic Assay for human Matrix Metalloproteinase-7 (MMP7) (AID 2283183)
Method in brief: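 Compounds first tested at 25 uM in duplicate, then at up to 50 uM in concentration series if active. Protease activity measured by fluorescence intensity 1 h after dosing, with fitting relative to DMSO.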

[14] = VALA_TUBHUV_Agonist_CellCount: Viability Assessment in the VALA Sciences human Umbilical Vein Endothelial Tubule Formation (TUBHUV) Agonism Assay (AID 2284309)
Method in brief: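 Viability endpoint by fluorescent imaging of fixed nuclear/CD31-stained HUVEC–HDF co-cultures. Readout is cell count, fitted upward against 0.1% DMSO. Compound exposure was 72 h in 10 ng/ml VEGF, after 3-day co-culture priming.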

[15] = VALA_TUBIPS_Antagonist_TubuleLength: VALA Sciences human iPS-derived Endothelial Tubule Formation (TUBIPS) Antagonist Assay (AID 2284313)
Method in brief: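 Tubule length was quantified by high-content imaging of CD31- and nuclear-stained cells, with 0.1% DMSO as neutral and 100 uM suramin as inhibition control. Compounds were applied for 3 days, in 10 ng/ml VEGF, to cultures pre-grown 3 days.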

[16] = VALA_TUBHUV_Agonist_TubuleLength: VALA Sciences human Umbilical Vein Endothelial Tubule Formation (TUBHUV) Agonism Assay (AID 2284337)
Method in brief: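 Tubule length quantified by CD31 immunofluorescence imaging after fixation. HUVEC-HDF co-cultures (1:3) pre-grown 3 days with 10 ng/ml VEGF, then dosed 3 days in VEGF medium; 0.1 % DMSO vehicle baseline.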

[17] = test system: rat CYP3A1, gene 25642; experiment: NVS_ADME_rCYP3A1: NovaScreen (NVS) CYP450-related Enzyme Activity (ADME) Assay for rat CYP3A1 (AID 2283126)
Method in brief: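 Compounds went first at 10 uM duplicate, then to series with 20 uM maximum. Fluorescence from substrate turnover by the recombinant enzyme was measured 0.5 h post-dosing, inhibition scored against acetonitrile vehicle.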

[18] = CCTE_Mundy_HCI_hN2_NOG_NeuriteCount: CCTE's Neurite Outgrowth Assay in human hN2 cells for Neurite Count, Mundy Lab (AID 2284219)
Method in brief: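 In this morphology assay, hNP1-derived neurons received test chemical 2 h post-plating and were fixed two days later in warm paraformaldehyde/sucrose containing Hoechst 33342. Neurites, labelled by rabbit anti-βIII-tubulin (1:800) and Alexa Fluor-488 (1:500), were counted automatically.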

[19] = CCTE_Mundy_HCI_hN2_NOG_NeuriteLength: CCTE's Neurite Outgrowth Assay in human hN2 cells for Neurite Length, Mundy Lab (AID 2284220)
Method in brief: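 Plate hNP1-derived neurons, then add chemical 2 h later as a 1/10 dilution. Stain with anti-βIII-tubulin then Alexa Fluor-488 secondary, and image automatically to measure neurite length.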

[20] = target: Cytochrome P450 3A4 (Homo sapiens) (UniProt P08684); experiment: NVS_ADME_hCYP3A4: NovaScreen (NVS) CYP450-related Enzyme Activity (ADME) Assay for human CYP3A4 (AID 2283110)
Method in brief: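 Compounds screened in duplicate at 10 uM, with follow-up concentration-response for actives, against insect-cell-expressed recombinant enzyme. Activity read by fluorescence 0.33 h after dosing; loss of signal versus acetonitrile control indicates inhibition.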

In the case of `O=P(OCCCl)(OCCCl)OCCCl`, the AC50 [1] is reported as inconclusive: 6.35 µM, the AC50 [2] is reported as inconclusive: 0.17 µM and the AC50 [3] is reported as inconclusive: 50 µM. The outcome [4] was “inactive”, the AC50 [5] was inconclusive: 0.00129 µM and the AC50 [6] was inconclusive: 50 µM. For the same compound, the AC50 [7] was inconclusive: 0.408 µM.

For `O=C(O)c1c(Cl)ccc2cc(Cl)cnc12`, the AC50 [8] was active: 8.48 µM.

For `CC(C)[C@@H](Nc1ccc(C(F)(F)F)cc1Cl)C(=O)OC(C#N)c1cccc(Oc2ccccc2)c1` (stereo not given in full), the AC50 [9] was inconclusive: 0.00674 µM.

In the case of `CN(C)C(=O)Nc1ccc(Cl)cc1`, the AC50 [10] is reported as active: 17.9 µM and the outcome [11] is reported as “inactive”.

With `c1csc(-c2ccc(-c3cccs3)s2)c1` the AC50 [12] was inconclusive: 38.3 µM.

For `Nc1ncn[nH]1`, the AC50 [13] was inconclusive: 25.1 µM, the AC50 [14] was inconclusive: 0.67 µM and the outcome [15] was “inactive”. The outcome [16] was “inactive”.

In the case of `CCCSP(=O)(OCC)Oc1ccc(Br)cc1Cl` (stereo not given), the AC50 [17] is reported as active: 9.45 µM, the AC50 [18] is reported as inconclusive: 25.6 pM and the AC50 [19] is reported as inconclusive: 50 µM.

In the case of `O=P(OCC(Br)CBr)(OCC(Br)CBr)OCC(Br)CBr` (stereo not given), the AC50 [20] is reported as inconclusive: 0.218 µM.
